Experimental data from patent US11014933B2 (priority 2018, dated 2021).
Some entries share one result that the patent states for a list of compounds.

By UniProt entry, the sequences of proteins in these tests, tags left out. Where a name states a change or a piece, a line headed by the entry shows the natural chain unless it says otherwise.
UniProt P41145: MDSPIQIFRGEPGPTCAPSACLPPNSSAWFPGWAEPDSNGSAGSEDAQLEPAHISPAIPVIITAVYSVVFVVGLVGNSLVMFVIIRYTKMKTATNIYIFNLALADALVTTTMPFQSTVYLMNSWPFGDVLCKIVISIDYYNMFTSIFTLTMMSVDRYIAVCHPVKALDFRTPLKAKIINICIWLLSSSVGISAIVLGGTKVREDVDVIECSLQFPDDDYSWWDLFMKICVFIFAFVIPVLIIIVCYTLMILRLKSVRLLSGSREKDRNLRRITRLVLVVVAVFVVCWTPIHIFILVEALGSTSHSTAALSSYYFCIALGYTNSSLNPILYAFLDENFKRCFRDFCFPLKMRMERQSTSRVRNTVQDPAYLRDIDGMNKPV

Target: T1, KOR (Homo sapiens, UniProt P41145)
T1 construct: expressed in transfected cells; host or cells: CHO
Assay type: binding

Row | SMILES | Ki KOR
1 | N#Cc1cnccc1C(=O)N[C@@H]1CC[C@@]2(O)[C@H]3Cc4ccc(O)c5c4[C@@]2(CCN3CC2CC2)[C@H]1O5 [Compound 2] | one-digit nanomolar or two-digit nanomolar binding affinity
2 | O=C(N[C@@H]1CC[C@@]2(O)[C@H]3Cc4ccc(O)c5c4[C@@]2(CCN3CC2CC2)[C@H]1O5)c1ccncc1-c1ccccc1 [Compound 12] | one-digit nanomolar or two-digit nanomolar binding affinity
3 | O=C(N[C@@H]1CC[C@@]2(O)[C@H]3Cc4ccc(O)c5c4[C@@]2(CCN3CC2CC2)[C@H]1O5)c1ccncc1C1CCCCC1 [Compound 10] | one-digit nanomolar or two-digit nanomolar binding affinity
4 | O=C(N[C@@H]1CC[C@@]2(O)[C@H]3Cc4ccc(O)c5c4[C@@]2(CCN3CC2CC2)[C@H]1O5)c1ccncc1F [Compound 1] | one-digit nanomolar or two-digit nanomolar binding affinity
